PubChem BioAssay AID652272 – Drosophila RNAi Screening Center, 2013

- Purpose: 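Genes whose knock-down decreases or increases Hedgehog reporter output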 (primary screen)
- System: Drosophila clone 8 (Cl8) cells
- Reagent: long dsRNA against Drosophila genes
- Detection: 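Plate reader light from a firefly reporter under a ptc promoter fragment that responds to Hedgehog, with Renilla light as transfection reference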
- Scale: firefly Hh reporter signal: higher = more ptc reporter light; Renilla reference signal: higher = more Renilla control light
- Active means: 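Hit when the z-score averaged over two replicates is under -2 or over +3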
- Meaning of the calls: active = hit: reporter lowered or raised; inactive = not a hit
The screen tested about 21,000 reagents; this is an unselected part of those with a known target gene and a result. Of all reagents, 503 (2.4%) were called active. 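Raw plate light values, not normalised; calls rest on replicate z-scores that were not deposited; hits include reporter decreases as well as increases.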 A number with no mark means an inactive call. Not given: the amount of reagent, the time to read-out.

brn (GeneID 31358) [DRSC18746]
- firefly Hh reporter signal, replicate 1: 1.13e5
- firefly Hh reporter signal, replicate 2: 1.16e5
- Renilla reference signal, replicate 1: 2560
- Renilla reference signal, replicate 2: 4041

CG32086 (GeneID 326195) [DRSC10586]
- firefly Hh reporter signal, replicate 1: 97521
- firefly Hh reporter signal, replicate 2: 42474
- firefly Hh reporter signal, replicate 3: 44179
- Renilla reference signal, replicate 1: 4771
- Renilla reference signal, replicate 2: 2935

CG31741 (GeneID 35079) [DRSC02887]
- firefly Hh reporter signal, replicate 1: 86739
- firefly Hh reporter signal, replicate 2: 73312
- Renilla reference signal, replicate 1: 2250
- Renilla reference signal, replicate 2: 6464

CG14085 (GeneID 40099) [DRSC10089]
- firefly Hh reporter signal, replicate 1: 99936
- firefly Hh reporter signal, replicate 2: 89542
- Renilla reference signal, replicate 1: 4003
- Renilla reference signal, replicate 2: 2368

CG13947 (GeneID 33250) [DRSC00365]
- firefly Hh reporter signal, replicate 1: 1.70e5
- firefly Hh reporter signal, replicate 2: 1.14e5
- Renilla reference signal, replicate 1: 4272
- Renilla reference signal, replicate 2: 2850

Tsp42Ei (GeneID 35618) [DRSC06189]
- firefly Hh reporter signal, replicate 1: 95371
- firefly Hh reporter signal, replicate 2: 51596
- Renilla reference signal, replicate 1: 2376
- Renilla reference signal, replicate 2: 4964

Cdlc2 (GeneID 33319) [DRSC00743]
- firefly Hh reporter signal, replicate 1: 93157
- firefly Hh reporter signal, replicate 2: 69528
- Renilla reference signal, replicate 1: 2807
- Renilla reference signal, replicate 2: 2630

Dh44 (GeneID 41170) [DRSC12747]
- firefly Hh reporter signal, replicate 1: 2.03e5
- Renilla reference signal, replicate 1: 4156

Dh44 (GeneID 41170) [DRSC16409]
- firefly Hh reporter signal, replicate 1: 78240
- firefly Hh reporter signal, replicate 2: 95264
- Renilla reference signal, replicate 1: 2624
- Renilla reference signal, replicate 2: 2742

Cirl (GeneID 35846) [DRSC07227]
- firefly Hh reporter signal, replicate 1: 36337
- firefly Hh reporter signal, replicate 2: 31857
- Renilla reference signal, replicate 1: 2312
- Renilla reference signal, replicate 2: 1344

Septin4 (GeneID 32646) [DRSC20205]
- firefly Hh reporter signal, replicate 1: 99530
- firefly Hh reporter signal, replicate 2: 82112
- Renilla reference signal, replicate 1: 1731
- Renilla reference signal, replicate 2: 2134

Dyrk3 (GeneID 3885567) [DRSC21055]
- firefly Hh reporter signal, replicate 1: 3.72e5 (active)
- firefly Hh reporter signal, replicate 2: 1.55e5
- Renilla reference signal, replicate 1: 32172
- Renilla reference signal, replicate 2: 5728

CG18294 (GeneID 40115) [DRSC09891]
- firefly Hh reporter signal, replicate 1: 1.61e5
- firefly Hh reporter signal, replicate 2: 1.52e5
- Renilla reference signal, replicate 1: 6102
- Renilla reference signal, replicate 2: 3655

CG6345 (GeneID 41271) [DRSC16024]
- firefly Hh reporter signal, replicate 1: 1.16e5
- firefly Hh reporter signal, replicate 2: 1.19e5
- Renilla reference signal, replicate 1: 4698
- Renilla reference signal, replicate 2: 3404

Looked up above:
Under “Renilla reference signal, replicate 1”, CG31741 (GeneID 35079) [DRSC02887] reads 2250
Result for CG32086 (GeneID 326195) [DRSC10586] in “Renilla reference signal, replicate 2”: 2935
